Laboratory results as given in patent publication US5707966A, “Antithrombotic agents” (Eli Lilly and Company, priority 1995, dated 1998).
Structures can show the parent of a compound that is named as a salt. At least one structure is not confirmed: it was looked up by name or label, or the drawing left a doubt.

Experiment: Index of bioavailability (% Relative Activity, plasma TT AUC oral vs i.v.)
Format: in vivo
Set-up: key: NC^1 indicates screening not completed; low or very low activity observed at 20 mg/kg p.o.; NC^2 indicates screening not completed; low or very low activity observed at 60 mg/kg p.o.; NC^3 indicates screening not completed; low or very low activity observed at 50 mg/kg p.o
Conditions: screening not completed, activity p.o. at the dose given in the note
Protocol: Plasma thrombin time (TT) and activated partial thromboplastin time (APTT) are measured with a fibrometer. […] Parke Davis) at 37° C. […] Assays are done in duplicate and averaged. A measure of bioactivity, plasma thrombin time (TT), served as a substitute for the assay of parent compound on the assumption that increments in TT resulted from thrombin inhibition by parent only. The time course of the effect of the thrombin inhibitor upon TT is determined after i.v. bolus administration to anesthetized rats and after oral treatment of fasted conscious rats. Due to limitations of blood volume and the number of points required to determine the time course from time of treatment to the time when the response returned to pretreatment values, two populations of rats are used. Each sample population represented alternating sequential time points. The average TT over the time course is used to calculate area under the curve (AUC). The index of bioavailability is calculated by the formula shown below and is expressed as percent relative activity. The area under the curve (AUC) of the plasma TT time course is determined and adjusted for the dose. […] Bolus injection volume is 1 mL/kg for i.v., and 5 mL/kg for p.o. and infusion volume is 3 mL/hr.

Row | SMILES | % oral/i.v. activity (Rat)
1 | N=C(N)c1ccc(CNC(=O)[C@@H]2C[C@@H]3CCCC[C@@H]3N2C(=O)[C@@H](CC2CCCCC2)NCC(=O)O)cc1 (relative stereo) [Example 49, HOOCCH2 -D-Cha-cis-Ohi-p-NHCH2 C6 H4 C(NH)NH2.HCl] | NC^2
2 | N=C(N)c1ccc(CNC(=O)[C@@H]2C[C@@H]3CCCC[C@@H]3N2C(=O)[C@@H]2NCC[C@@H]3CCCC[C@@H]32)cc1 (relative stereo) [Example 42, D-1-Piq-cis-Ohi-p-NHCH2 C6 H4 C(NH)NH2.2HCl] | NC^2
3 | N=C(N)c1ccc(CNC(=O)[C@@H]2CCCN2C(=O)[C@@H](CC2CCCCC2)NCC(=O)O)c(F)c1 [Example 71, HO2 CCH2 -D-Cha-Pro-4-NHCH2 -3-F-benzamidine.HCl] | NC^1
4 | CCS(=O)(=O)N[C@H](Cc1ccccc1)C(=O)N1[C@H](C(=O)NCc2ccc(C(=N)N)cc2)C[C@@H]2CCCC[C@@H]21 (relative stereo) [Example 45, EtSO2 -Phe-cis-Ohi-p-NHCH2 C6 H4 C(NH)NH2.HCl] | NC^2
5 | N=C(N)c1cc(F)c(CNC(=O)[C@@H]2CCCN2C(=O)[C@@H](CC2CCCCC2)NCC(=O)O)c(F)c1 [Example 72, HO2 CCH2 -D-Cha-Pro-4-NHCH2 -3,5-F2 -benzamidine.HCl] | NC^1
6 | N=C(N)c1ccc(CNC(=O)[C@@H]2C[C@@H]3CCCC[C@@H]3N2C(=O)[C@@H](Cc2ccccc2)NCC(=O)O)cc1 (relative stereo) [Example 47, HOOCCH2 -D-Phe-cis-Ohi-p-NHCH2 C6 H4 C(NH)NH2.HCl] | NC^2
7 | Nc1ccc(CNC(=O)[C@@H]2CCCN2C(=O)[C@@H](CC2CCCCC2)NCC(=O)O)c(F)c1 [Example 64, HO2 CCH2 -D-Cha-Pro-4-NHCH2 -3-F-C6 H3 NH2.HCl] | NC^3
